Values from PubChem BioAssay AID504791 (Drosophila RNAi Screening Center, 2011)

Test: 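Factors in Argonaute-based small RNA production and activity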 (primary screen)
Cell system: Drosophila S2-derived reporter cells
Knock-down reagent: long dsRNA against Drosophila genes, about 150-250 ng dsRNA per well (siRNA assay); about 80-120 ng (miRNA assay)
Time to read-out: about 5 days (siRNA assay); about 4 days (miRNA assay)
Treatment: copper sulfate induction of reporters: 25 µM (siRNA assay); 200 mM stated (miRNA assay), 1-2 days before reading
Read-out: 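Per-well ratio of Renilla over firefly light, expressed relative to that plate's average ratio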
Direction: siRNA reporter hit score: higher = 3 marks a strong hit with raised ratio; -3 a strong hit with lowered ratio
Units: stable assay Renilla, run 1 in luminescence; stable assay firefly, run 1 in luminescence
Rule for the call: 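First-pass picks had plate-scaled ratios over 1.5 for the siRNA assay, over 1.6 for the miRNA assay, or under 0.6; two distinct dsRNAs had to score alike on retest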
In all, the deposit lists about 23,000 reagents; shown is an unselected part of those that have a named target and a result. In the full data, 199 (0.86%) were called active. 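Plate-scaled ratios behind the calls are not deposited; printed light signals are raw; many rows marked increased or decreased are still called inactive.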 A number with no mark means an inactive call.

Cdk8 (GeneID 39157) [DRSC11113]
- stable assay Renilla, run 1: 7535
- stable assay firefly, run 1: 3.99e5

PH4alphaSG2 (GeneID 43623) [DRSC15037]
- stable assay Renilla, run 1: 6203
- stable assay firefly, run 1: 3.92e5

net (GeneID 45339) [DRSC00309]
- stable assay Renilla, run 1: 7387
- stable assay firefly, run 1: 4.44e5

CG3746 (GeneID 37593) [DRSC04412]
- stable assay Renilla, run 1: 5843
- stable assay firefly, run 1: 3.33e5

RpL7 (GeneID 34352) [DRSC03417]
- stable assay Renilla, run 1: 7933
- stable assay firefly, run 1: 3.50e5

CG34309 (GeneID 5740636) [DRSC14838]
- stable assay Renilla, run 1: 6654
- stable assay firefly, run 1: 4.25e5

Npl4 (GeneID 43091) [DRSC15615]
- stable assay Renilla, run 1: 6547
- stable assay firefly, run 1: 4.28e5

Npl4 (GeneID 43091) [DRSC15616]
- stable assay Renilla, run 1: 5754
- stable assay firefly, run 1: 3.53e5

CecC (GeneID 43599) [DRSC16606]
- stable assay Renilla, run 1: 5947
- stable assay firefly, run 1: 3.72e5

CG31279 (GeneID 318657) [DRSC13158]
- stable assay Renilla, run 1: 3368
- stable assay firefly, run 1: 3.34e5

CG2930 (GeneID 31341) [DRSC17730]
- stable assay Renilla, run 1: 7298
- stable assay firefly, run 1: 4.37e5

Sgs4 (GeneID 31304) [DRSC18715]
- stable assay Renilla, run 1: 5912
- stable assay firefly, run 1: 3.39e5

Eig71Eb (GeneID 39701) [DRSC11149]
- stable assay Renilla, run 1: 7810
- stable assay firefly, run 1: 3.84e5

mRpL15 (GeneID 40261) [DRSC11771]
- stable assay Renilla, run 1: 7096
- stable assay firefly, run 1: 3.00e5

mfrn (GeneID 43353) [DRSC15687]
- stable siRNA reporter change: reporter ratio lowered past the hit cutoff
- stable assay Renilla, run 1: 4539
- stable assay firefly, run 1: 4.85e5

Nop56 (GeneID 42633) [DRSC14699]
- stable assay Renilla, run 1: 6692
- stable assay firefly, run 1: 3.26e5

Prosalpha7 (GeneID 36018) [DRSC07516]
- siRNA reporter hit score: -3 (active)
- stable siRNA reporter change: reporter ratio raised past the hit cutoff
- stable assay Renilla, run 1: 9279
- stable assay firefly, run 1: 2.64e5

CG10337 (GeneID 35247) [DRSC02038]
- stable assay Renilla, run 1: 6624
- stable assay firefly, run 1: 3.99e5

loh (GeneID 34435) [DRSC01122]
- stable assay Renilla, run 1: 5620
- stable assay firefly, run 1: 4.59e5

loh (GeneID 34435) [DRSC02943]
- stable assay Renilla, run 1: 6463
- stable assay firefly, run 1: 3.73e5

r-l (GeneID 42493) [DRSC17042]
- stable assay Renilla, run 1: 2792
- stable assay firefly, run 1: 3.48e5

r-l (GeneID 42493) [DRSC22784]
- stable siRNA reporter change: reporter ratio lowered past the hit cutoff
- stable assay Renilla, run 1: 1432
- stable assay firefly, run 1: 3.47e5

CG7514 (GeneID 38571) [DRSC08597]
- stable assay Renilla, run 1: 6818
- stable assay firefly, run 1: 4.62e5

CG10516 (GeneID 39738) [DRSC09738]
- stable assay Renilla, run 1: 6642
- stable assay firefly, run 1: 3.03e5

CG32762 (GeneID 318198) [DRSC18298]
- stable assay Renilla, run 1: 5103
- stable assay firefly, run 1: 4.33e5

Trxr2 (GeneID 40475) [DRSC11900]
- stable assay Renilla, run 1: 8047
- stable assay firefly, run 1: 4.13e5

gogo (GeneID 40225) [DRSC10070]
- stable assay Renilla, run 1: 6167
- stable assay firefly, run 1: 3.70e5

gogo (GeneID 40225) [DRSC10071]
- stable assay Renilla, run 1: 6411
- stable assay firefly, run 1: 3.50e5
